Measured values published in PubChem BioAssay AID268 (DTP/NCI, 2004).
The list is a part of this screen's results and no random one: it is rich in T/C values a quarter to a half above the control, in often repeated tests (any T/C) and in doses without a T/C. Further doses and runs are listed elsewhere. T/C gives the treated animals as a percentage of the vehicle group. Schedules are NCI's codes, read here as Q, the interval in days (D) or hours (H), X, the number of doses. Some T/C values carry the count of animals alive at the toxicity check (mostly the fifth day); without a count, all were alive then. Some entries were tested several times; the results are listed from low to high. Some schedules carry Z or #; the key to these is not given. Some entries give survivors of the animals treated and no T/C: the source files T/C as zero there, which appears to mark a toxic dose or a test without result, not a measured value. Counts of survivors are from the toxicity check (mostly the fifth day) where no day follows; animals may have died later.

System: CD2F1 mice, P1798 lymphosarcoma sc, tumor weight T/C
Assay: NCI In Vivo Anticancer Drug Screen. Data for tumor model P1798 Lymphosarcoma (subcutaneous) in CD2F1 (CDF1) mice
Conditions: higher T/C = larger tumour
Experimental: The antitumor activity of compounds was measured in mice bearing transplantable tumors. Survival or tumor size were measured and the results are expressed as the measurement made in the treated group (T) divided by the measurement made in the vehicle treated control group (C). The tumor model used in this assay is P1798 Lymphosarcoma (subcutaneous) in CD2F1 (CDF1) mice

[1] = T/C endpoint: mean tumor weight, dose: 20.0 mg/kg/injection, schedule: Q01DX010 (ip), vehicle: saline
[2] = T/C endpoint: mean tumor weight, dose: 40.0 mg/kg/injection, schedule: Q01DX010 (ip), vehicle: saline
[3] = T/C endpoint: mean tumor weight, dose: 200.0 mg/kg/injection, schedule: Q01DX010 (ip), vehicle: saline
[4] = T/C endpoint: mean tumor weight, dose: 50.0 mg/kg/injection, schedule: Q01DX010 (ip), vehicle: saline
[5] = T/C endpoint: mean tumor weight, dose: 100.0 mg/kg/injection, schedule: Q01DX010 (ip), vehicle: saline
[6] = T/C endpoint: mean tumor weight, dose: 25.0 mg/kg/injection, schedule: Q01DX010 (sc), vehicle: steroid suspending solution, evaluated on day 12
[7] = T/C endpoint: mean tumor weight, dose: 2.0 mg/kg/injection, schedule: Q01DX010 (ip), vehicle: saline
[8] = T/C endpoint: mean tumor weight, dose: 10.0 mg/kg/injection, schedule: Q01DX010 (ip), vehicle: saline
[9] = T/C endpoint: mean tumor weight, dose: 5.0 mg/kg/injection, schedule: Q01DX010 (ip), vehicle: saline

Structure (SMILES): CCOC(=O)NP(=O)(N1CC1)N1CC1
- survivor count [1]: 1 of 6
- survivor count [2]: 0 of 6

Structure (SMILES): O=C(CNC(=O)OCc1ccccc1)NCCCCCCNCCCCCCNC(=O)CNC(=O)OCc1ccccc1
- T/C (T/C endpoint: mean tumor weight, dose: 25.0 mg/kg/injection, schedule: Q01DX010 (ip), vehicle: saline, evaluated on day 12): 129 % of control
- survivor count [3]: 3 of 6

Structure (SMILES): CCn1cnc2c(=S)nc[nH]c21
- survivor count (T/C endpoint: mean tumor weight, dose: 125.0 mg/kg/injection, schedule: Q01DX010 (ip), vehicle: saline): 0 of 6 and 1 of 6

Structure (SMILES): CC[n+]1c(-c2ccccc2)c2cc(N)ccc2c2ccc(N)cc21
- survivor count [1]: 1 of 6
- survivor count [2]: 0 of 6

Structure (SMILES): Nc1ncnc2c1ccn2C1OC(CO)C(O)C1O (configuration not stated)
- T/C (T/C endpoint: mean tumor weight, dose: 0.16 mg/kg/injection, schedule: Q01DX010 (ip), vehicle: saline, evaluated on day 12): 134 % of control

Structure (SMILES): Nc1nc(F)nc2c1ncn2C1OC(CO)C(O)C1O (configuration not stated)
- survivor count (T/C endpoint: mean tumor weight, dose: 6.0 mg/kg/injection, schedule: Q01DX010 (ip), vehicle: saline): 0 of 7
- survivor count (T/C endpoint: mean tumor weight, dose: 12.0 mg/kg/injection, schedule: Q01DX010 (ip), vehicle: saline): 0 of 7
- survivor count (T/C endpoint: mean tumor weight, dose: 24.0 mg/kg/injection, schedule: Q01DX010 (ip), vehicle: saline): 0 of 7

Structure (SMILES): CC(=O)NCCSC(=O)C(=O)SCCNC(C)=O
- survivor count [3]: 0 of 6

Structure (SMILES): O=C(C(=O)N1CC1)c1c[nH]c2ccccc12
- survivor count [4]: 2 of 6
- survivor count [5]: 0 of 6

Structure (SMILES): CCCNc1ncnc2[nH]ncc12
- T/C (T/C endpoint: mean tumor weight, dose: 3.13 mg/kg/injection, schedule: Q01DX010 (ip), vehicle: saline, evaluated on day 12): 131 % of control
- T/C (T/C endpoint: mean tumor weight, dose: 12.5 mg/kg/injection, schedule: Q01DX010 (ip), vehicle: saline, evaluated on day 12): 129 % of control
- survivor count (T/C endpoint: mean tumor weight, dose: 25.0 mg/kg/injection, schedule: Q01DX010 (ip), vehicle: saline): 3 of 6
- survivor count [4]: 0 of 6

Structure (SMILES): C[C@@H]1C[C@H]2[C@@H]3CCC4=CC(=O)C=C[C@]4(C)[C@@]3(F)[C@@H](O)C[C@]2(C)[C@@]1(O)C(=O)CO
- survivor count (T/C endpoint: mean tumor weight (est.), dose: 25.0 mg/kg/injection, schedule: Q01DX016 (sc), vehicle: saline): 2 of 10 on day 24
- T/C (T/C endpoint: mean tumor weight, dose: 12.5 mg/kg/injection, schedule: Q01DX010 (sc), vehicle: steroid suspending solution, evaluated on day 12): 2 and 2 % of control [4 of 6 alive]
- survivor count (T/C endpoint: mean tumor weight, dose: 12.5 mg/kg/injection, schedule: Q01DX010 (sc), vehicle: steroid suspending solution): 1 of 6
- T/C (T/C endpoint: mean tumor weight, dose: 12.5 mg/kg/injection, schedule: Q01DX010 (sc), vehicle: steroid suspending solution, run until all animals had died): 78 % of control
- T/C [6]: 2 and 2 % of control [5 of 6 alive]
- survivor count (T/C endpoint: mean tumor weight, dose: 25.0 mg/kg/injection, schedule: Q01DX010 (sc), vehicle: steroid suspending solution): 2 of 6
- T/C (T/C endpoint: mean tumor weight, dose: 25.0 mg/kg/injection, schedule: Q01DX010 (sc), vehicle: steroid suspending solution, run until all animals had died): 34 % of control
- survivor count (T/C endpoint: mean tumor weight, dose: 50.0 mg/kg/injection, schedule: Q01DX010 (sc), vehicle: steroid suspending solution): 0 of 6 and 1 of 6
- survivor count (T/C endpoint: mean tumor weight, dose: 100.0 mg/kg/injection, schedule: Q01DX010 (sc), vehicle: steroid suspending solution): 0 of 6

Structure (SMILES): N#Cc1cn(C2OC(CO)C(O)C2O)c2ncnc(N)c12 (configuration not stated)
- survivor count (T/C endpoint: mean tumor weight, dose: 0.5 mg/kg/injection, schedule: Q01DX010 (ip), vehicle: saline): 1 of 6

Structure (SMILES): CO[C@@]12[C@H](COC(N)=O)C3=C(C(=O)C(C)=C(N)C3=O)N1C[C@@H]1N[C@@H]12
- survivor count [7]: 0 of 6

Structure (SMILES): COCCOC
- survivor count (T/C endpoint: mean tumor weight, dose: 1000.0 mg/kg/injection, schedule: Q01DX010 (ip), vehicle: saline): 2 of 6

Structure (SMILES): NC(Cc1ccc(N(CCCl)CCCl)cc1)C(=O)O (configuration not stated)
- survivor count [8]: 2 of 6
- survivor count [1]: 0 of 6

Structure (SMILES): S=c1nc[nH]c2nc[nH]c12
- survivor count (T/C endpoint: mean tumor weight, dose: 80.0 mg/kg/injection, schedule: Q01DX010 (ip), vehicle: alkali diluted with saline): 3 of 6

Structure (SMILES): CC(CCC(C)OS(C)(=O)=O)OS(C)(=O)=O (configuration not stated)
- survivor count (T/C endpoint: mean tumor weight, dose: 32.0 mg/kg/injection, schedule: Q01DX010 (ip), vehicle: saline): 0 of 6

Structure (SMILES): CCN(CC)CCNc1ccc(C)c2sc3ccccc3c(=O)c12
- survivor count [5]: 3 of 6
- survivor count [3]: 0 of 6

Structure (SMILES): Nc1nc(=S)c2[nH]cnc2[nH]1
- survivor count (T/C endpoint: mean tumor weight, dose: 2.5 mg/kg/injection, schedule: Q01DX010 (ip), vehicle: saline): 1 of 6
- survivor count [9]: 0 of 6
- survivor count [8]: 0 of 6

Structure (SMILES): C=C1C[C@H]2[C@@H]3C=C(C)C4=CC(=O)CC[C@]4(C)[C@H]3CC[C@]2(C)[C@@]1(OC(C)=O)C(C)=O
- T/C [6]: 137 % of control
- T/C (T/C endpoint: mean tumor weight, dose: 50.0 mg/kg/injection, schedule: Q01DX010 (sc), vehicle: steroid suspending solution, evaluated on day 12): 134 % of control
- T/C (T/C endpoint: mean tumor weight, dose: 62.5 mg/kg/injection, schedule: Q01DX010 (sc), vehicle: steroid suspending solution, evaluated on day 12): 129 % of control
- T/C (T/C endpoint: mean tumor weight, dose: 125.0 mg/kg/injection, schedule: Q01DX001 (sc), vehicle: steroid suspending solution, evaluated on day 12): 125 % of control
- T/C (T/C endpoint: mean tumor weight, dose: 1000.0 mg/kg/injection, schedule: Q02DX005 (sc), vehicle: steroid suspending solution, evaluated on day 12): 137 % of control

Structure (SMILES): CC1(C)O[C@@H]2C[C@H]3[C@@H]4CCC5=CC(=O)C=C[C@]5(C)[C@@]4(F)[C@@H](O)C[C@]3(C)[C@]2(C(=O)CO)O1
- survivor count (T/C endpoint: mean tumor weight, dose: 3.75 mg/kg/injection, schedule: Q01DX010 (sc), vehicle: steroid suspending solution): 1 of 6
- survivor count (T/C endpoint: mean tumor weight, dose: 7.5 mg/kg/injection, schedule: Q01DX010 (sc), vehicle: steroid suspending solution): 0 of 6
- survivor count (T/C endpoint: mean tumor weight, dose: 15.0 mg/kg/injection, schedule: Q01DX010 (sc), vehicle: steroid suspending solution): 0 of 6
- survivor count (T/C endpoint: mean tumor weight, dose: 30.0 mg/kg/injection, schedule: Q01DX010 (sc), vehicle: steroid suspending solution): 0 of 6

Structure (SMILES): CC(=O)NC1=C(N2CC2)C(=O)C(NC(C)=O)=C(N2CC2)C1=O
- survivor count (T/C endpoint: mean tumor weight, dose: 1.0 mg/kg/injection, schedule: Q01DX010 (ip), vehicle: saline): 3 of 6
- survivor count [7]: 0 of 6

Structure (SMILES): Cc1cc2nc3c(=O)[nH]c(=O)nc-3n(CC(O)C(O)C(O)C(O)CO)c2cc1C (configuration not stated)
- survivor count (T/C endpoint: mean tumor weight, dose: 400.0 mg/kg/injection, schedule: Q01DX010 (ip), vehicle: saline): 0 of 6

Structure (SMILES): CN(Cc1cnc2nc(N)nc(N)c2n1)c1c(Cl)cc(C(=O)NC(CCC(=O)O)C(=O)O)cc1Cl (configuration not stated)
- survivor count [2]: 3 of 6
- survivor count (T/C endpoint: mean tumor weight, dose: 80.0 mg/kg/injection, schedule: Q01DX010 (ip), vehicle: saline): 1 of 6

Structure (SMILES): S=P(N1CCOCC1)(N1CC1)N1CC1
- survivor count [1]: 2 of 6

Structure (SMILES): CO[C@@H]1[C@@H](OC2OC(C)C(OC3CC(C)(O)C(OC(=O)CC(C)C)C(C)O3)C(N(C)C)C2O)[C@@H](CC=O)C[C@@H](C)C(=O)/C=C/C2O[C@H]2C[C@@H](C)OC(=O)C[C@H]1OC(C)=O (some centres not stated)
- survivor count (T/C endpoint: mean tumor weight, dose: 600.0 mg/kg/injection, schedule: Q01DX010 (ip), vehicle: saline): 0 of 6

Structure (SMILES): CCc1c(CC(=O)O)c2cc(C)ccc2n1Cc1ccc(Cl)cc1
- survivor count [5]: 0 of 6

Structure (SMILES): O=C1C=Cc2ccc(O)cc2C1=O
- survivor count [9]: 3 of 6
- survivor count [8]: 0 of 6

Structure (SMILES): Nc1nncs1
- survivor count (T/C endpoint: mean tumor weight, dose: 60.0 mg/kg/injection, schedule: Q01DX010 (ip), vehicle: saline): 0 of 6

Structure (SMILES): CCN(CC)CCCC(C)Nc1c2ccc(Cl)cc2nc2ccc(OC)cc12 (configuration not stated)
- survivor count [3]: 0 of 6

Structure (SMILES): CC(=O)OCC(=O)[C@@]1(O)CC[C@H]2[C@@H]3CCC4=CC(=O)C=C[C@]4(C)[C@H]3[C@@H](O)C[C@@]21C
- T/C (T/C endpoint: mean tumor weight, dose: 20.0 mg/kg/injection, schedule: Q01DX Z (sc), vehicle: steroid suspending solution, run until all animals had died): 132 % of control

Structure (SMILES): COc1ccc2[nH]c3c(C)c4ccncc4c(C)c3c2c1
- survivor count [4]: 0 of 6
- survivor count [5]: 0 of 6

Structure (SMILES): O=c1ccc2ccccc2o1
- survivor count (T/C endpoint: mean tumor weight, dose: 250.0 mg/kg/injection, schedule: Q01DX011 (ip), vehicle: carboxymethylcellulose (CMC)): 0 of 7
- survivor count (T/C endpoint: mean tumor weight, dose: 375.0 mg/kg/injection, schedule: Q01DX011 (ip), vehicle: carboxymethylcellulose (CMC)): 0 of 7

Structure (SMILES): CCOC(C)C(/C=N/NC(N)=S)=NNC(N)=S (configuration not stated)
- T/C (T/C endpoint: mean tumor weight, dose: 15.0 mg/kg/injection, schedule: Q01DX010 (ip), vehicle: saline, evaluated on day 12): 125 % of control

Structure (SMILES): CC(=O)Nc1ccc(/C=N/Nc2ccc([N+](=O)[O-])cn2)cc1
- survivor count (T/C endpoint: mean tumor weight, dose: 500.0 mg/kg/injection, schedule: Q01DX010 (ip), vehicle: saline): 3 of 6
